Results are given in words; binding and its absence hold for the method and conditions named. Binding seen in cells or lysates may run through a third protein. Binding can be weak; no strength is given.

This experiment has as its target KIF13B MBS domain. Briefly: co-IP.

B1: KIF13B residues 1289-1499 (domain or fragment, UniProt Q9NQT8 1289-1499)
chain: MSHRSSIPGCGVTFEIVSNIPEDAQGVEEREALARMAANVENPASADSEAYIEKYLRSVLAVENLLTLDRLRQEVAVKEQLTGKGKLSRRSISSPNVNRLSGSRQDLIPSYSLGSNKGRWESQQDVSQTTVSRGIAPAPALSVSPQNNHSPDPGLSNLAASYLNPVKSFVPQMPKLLKSLFPVRDEKRGKRPSPLAHQPVPRIMVQSASPD
In the case of B1, the binding entry was “binds”.
